Measured data: PubChem BioAssay AID1159578 (Peter MacCallum Cancer Centre, 2015)
In all, the deposit lists about 18,000 reagents; below is a random part of them. About 1,030 of all reagents (5.7%) count as active. 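Inactive calls also include pools with fewer than 3300 nuclei, whose migration was not assessed.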 The raw values are shown without normalisation.

- Screen: 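Genome-wide hunt for genes controlling movement of lymphatic endothelial cells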 (primary screen)
- System: human lymphatic endothelial cells
- Reagents: siRNA pool against human genes, 40 nM
- Duration: 48 h after transfection
- Measured: 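High-content imaging of dye-stained cells in a scratch assay measures filled wound area and nuclei per well; duplicate means given as ratio to mock and robust z-score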
- Reading the numbers: migration robust z-score: higher = faster migration into the scratch; migration relative to mock: higher = more scratch area covered than mock; nuclei per well: higher = more cells in the well
- Hit rule: 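Migration changed when robust z exceeds 2 or falls below -2 and mean nuclei number is at least 3300; otherwise not called changed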
- Calls: active = migration changed; inactive = no migration change, or too few cells

gene knocked down | migration robust z-score | migration class with cell-count check | migration relative to mock | nuclei per well, duplicate mean | Outcome
DDX27 | -2.08 | under 3300 nuclei; migration not judged | 0.4 | 3103 | inactive
HBS1L | -0.21 | migration z between -2 and 2; enough cells | 0.76 | 4938 | inactive
C1orf87 | -2.4 | migration z below -2; enough cells | 0.26 | 4491 | active
OR5M1 | -0.26 | migration z between -2 and 2; enough cells | 0.82 | 6450 | inactive
NBEA | -0.71 | migration z between -2 and 2; enough cells | 0.7 | 6136 | inactive
NIM1K | 0.42 | migration z between -2 and 2; enough cells | 0.88 | 7903 | inactive
MAP2 | 0.52 | migration z between -2 and 2; enough cells | 1.02 | 7516 | inactive
NFKB2 | 0.11 | migration z between -2 and 2; enough cells | 0.82 | 5455 | inactive
CD70 | 0.64 | migration z between -2 and 2; enough cells | 1.05 | 5714 | inactive
JPT2 | -0.94 | migration z between -2 and 2; enough cells | 0.64 | 5734 | inactive
CCDC71 | -0.5 | migration z between -2 and 2; enough cells | 0.75 | 6968 | inactive
DUS3L | -2.02 | under 3300 nuclei; migration not judged | 0.36 | 1782 | inactive
ZNF597 | 0.46 | migration z between -2 and 2; enough cells | 1.01 | 5266 | inactive
PHYKPL | 0.83 | migration z between -2 and 2; enough cells | 0.96 | 4648 | inactive

Part of the list above, reduced to “migration robust z-score”:
OR5M1 = -0.26
NBEA = -0.71
NIM1K = 0.42

The list goes on.
gene knocked down | migration robust z-score | migration class with cell-count check | migration relative to mock | nuclei per well, duplicate mean | Outcome
MRTFB | -1.61 | migration z between -2 and 2; enough cells | 0.5 | 4944 | inactive
KL | 0.46 | migration z between -2 and 2; enough cells | 0.9 | 5456 | inactive
BARHL2 | 0.98 | migration z between -2 and 2; enough cells | 1.14 | 5720 | inactive
FGF8 | 1.14 | migration z between -2 and 2; enough cells | 1.02 | 5618 | inactive
RAD54L | 0.88 | migration z between -2 and 2; enough cells | 0.98 | 6728 | inactive
ARHGAP25 | 1.54 | migration z between -2 and 2; enough cells | 1.28 | 6147 | inactive
H2BC10 | 1.4 | migration z between -2 and 2; enough cells | 1.25 | 4969 | inactive
SOS1 | 0.36 | migration z between -2 and 2; enough cells | 0.88 | 5691 | inactive
COL16A1 | -0.1 | migration z between -2 and 2; enough cells | 0.86 | 5475 | inactive
